The exact form of at least one protein or probe is not confirmed. For part of these data: A negative result means that nothing was seen under these conditions.
Key:
[1] = system: anti-BPDE-DNA monoclonal antibody 8E11 (Mus musculus); test: competition with a labelled probe; conditions: protein details: BD PharMingen, single-stranded DNA
[2] = system: anti-BPDE-DNA monoclonal antibody 8E11 (Mus musculus); test: binding assay; conditions: CE/LIF, protein details: BD PharMingen, label: 5'-TMR, single-stranded DNA
[3] = system: anti-BPDE-DNA monoclonal antibody E5; test: binding assay; conditions: CE/LIF, protein details: cell supernatant, Shell, label: 5'-TMR, single-stranded DNA
[4] = system: anti-BPDE-DNA monoclonal antibody 5D11 (Mus musculus); test: binding assay; conditions: single (+/-)-anti-BPDE-N2-dG adduct in the SEQ:5 segment; CE/LIF; less complex than 8E11; protein details: BD PharMingen; label: 5'-TMR; single-stranded DNA
[5] = system: polyclonal mouse IgG (negative control) (Mus musculus); test: binding assay; conditions: single (+/-)-anti-BPDE-N2-dG adduct in the SEQ:5 segment; negative control; protein details: Calbiochem; label: 5'-TMR; single-stranded DNA
[6] = unmodified control 90-mer, variant of TMR-BPDE-90-mer, heat-denatured

**Q.** Does “CCCATTATGCATAACC [BPDE-16-mer, unlabeled competitor]” bind ([1]; single (+/-)-anti-BPDE-N2-dG adduct at the central G, competes with TMR-BPDE-16-mer and TMR-BPDE-90-mer, primary labeled complex lost above 250 nM, variant of TMR-BPDE-16-mer)?
**A.** binds

**Q.** Does CCCATTATGCATAACC [TMR-BPDE-16-mer] bind ([2]; single (+/-)-anti-BPDE-N2-dG adduct at the central G, 1:1 and 1:2 complexes, 80-85% of 24 nM in 1:1 complex at 50-100 nM Ab, tris-glycine pH 8.3)?
**A.** binds

**Q.** Does “CCTTAAGCTTCCTCAACCACTTACCATACTCGAGATTCCCATTATGCATAACCGTCATATGCCGCCTCTGACCTTCCTAGAATTCCATCC [BPDE-90-mer, unlabeled competitor]” bind ([1]; single (+/-)-anti-BPDE-N2-dG adduct in the SEQ:5 segment, competes with TMR-BPDE-16-mer, mixed Ab(16mer*)(90mer) complex seen, variant of TMR-BPDE-90-mer, heat-denatured)?
**A.** binds

**Q.** Does “CCTTAAGCTTCCTCAACCACTTACCATACTCGAGATTCCCATTATGCATAACCGTCATATGCCGCCTCTGACCTTCCTAGAATTCCATCC [TMR control 90-mer (no BPDE), heat-denatured]” bind [3, 6]?
**A.** no binding

**Q.** Does “CCTTAAGCTTCCTCAACCACTTACCATACTCGAGATTCCCATTATGCATAACCGTCATATGCCGCCTCTGACCTTCCTAGAATTCCATCC [TMR control 90-mer (no BPDE), heat-denatured]” bind [2, 6]?
**A.** no binding

**Q.** Does “CCTTAAGCTTCCTCAACCACTTACCATACTCGAGATTCCCATTATGCATAACCGTCATATGCCGCCTCTGACCTTCCTAGAATTCCATCC [TMR-BPDE-90-mer, heat-denatured]” bind [4]?
**A.** binds

**Q.** Does “CCTTAAGCTTCCTCAACCACTTACCATACTCGAGATTCCCATTATGCATAACCGTCATATGCCGCCTCTGACCTTCCTAGAATTCCATCC [TMR-BPDE-90-mer, heat-denatured]” bind ([3]; single (+/-)-anti-BPDE-N2-dG adduct in the SEQ:5 segment, less complex than 8E11)?
**A.** binds

**Q.** Does “CCTTAAGCTTCCTCAACCACTTACCATACTCGAGATTCCCATTATGCATAACCGTCATATGCCGCCTCTGACCTTCCTAGAATTCCATCC [TMR-BPDE-90-mer, heat-denatured]” bind [5]?
**A.** no binding

**Q.** Does “CCTTAAGCTTCCTCAACCACTTACCATACTCGAGATTCCCATTATGCATAACCGTCATATGCCGCCTCTGACCTTCCTAGAATTCCATCC [TMR-BPDE-90-mer, heat-denatured]” bind ([2]; single (+/-)-anti-BPDE-N2-dG adduct in the SEQ:5 segment, about 60% of 50 nM bound at ~140 nM Ab, weaker than 16-mer, tris-glycine pH 8.3)?
**A.** binds
